# Test results published in PubChem BioAssay AID1347076 (National Center for Advancing Translational Sciences (NCATS), 2019).
# Hit rate of the full screen: of about 400,000 compounds, about 13,000 (3.2%) were called active. The inconclusive results got no clear call from the source; some entries with a clear call stand among them for comparison. The call rests on the fitted dose curve; in most records, active means well fitted cell-killing curve with a large enough effect; inconclusive means small, poorly fitted or top-dose-only effect, or effect the other way; inactive means flat fitted curve, though single readings scatter. Potencies of inconclusive entries are doubtful fits and often do not repeat.
# Experiment: qHTS assay for MDR1-selective chemotherapeutics: Primary screen using the drug-selected MDR subline cells KB-V1; further: nearly all actives have a fitted effect of over 60% in size
# Settings: KB-V1 MDR cells viability, CellTiter-Glo, 72 h; series mostly up to 46.1 µM
# Summary of the method: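 In this primary screen, KB-V1 cells overexpressing P-gp are incubated with library compounds (lowest to highest concentration) for 72 h at 37 degrees C before a luminescent ATP viability read.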
# Potency means the concentration at half of the fitted maximal effect.
row,Compound,Potency
1,CCC(=O)N1CCN(c2ccc(Cl)cc2NC(=O)c2cccc([N+](=O)[O-])c2)CC1,inactive
2,O=C(COC(=O)C1CCN(S(=O)(=O)c2cccc3cccnc23)CC1)c1ccc(F)cc1,"inconclusive: 18.4 µM [rising, partial curve, poor fit]"
3,CC(=Nc1ccccc1)C1=C(O)CSC1=O,inactive
4,O=C(C[C@H]1C[C@H](C(=O)N2CCCCC2)[C@@]2(CCc3ccccc3)c3[nH]c4ccc(Cl)cc4c3CCN2C1=O)NCc1cccc(C(F)(F)F)c1,inactive
5,CCOC(=O)c1ccc(NC(=O)c2ccc(CN3CCOCC3)cc2)cc1,inactive
6,Cc1ccc(-c2c(C#N)c(N)n(-c3ccccc3C)c(=O)c2C#N)cc1,inactive
7,CCc1nc2c(OCCOc3ccc(F)cc3)cccn2c1N(C)C(=O)CC(C)C,"inconclusive: 8.2 µM [cytotoxic, partial curve]"
8,COCc1cc(C)nc2c1C(=O)NC(c1ccc(C)cc1)N2Cc1ccccc1 (stereo not drawn),inactive
9,CC1(C)CC2CC(C)(CN2C(=O)NC(=O)c2ccccc2)C1 (stereo not drawn),"inconclusive: 20.6 µM [cytotoxic, single point]"
10,Cc1cc(Cn2nc(-c3ccccc3C)cc2C(=O)O)on1,"inconclusive: 29.1 µM [rising, single point]"
11,Cc1c(C(=O)NCc2ccc3c(c2)OCCO3)sc(=O)n1Cc1ccc(S(=O)(=O)N(C)C)cc1,active: 9.2 µM
12,O=C1NC(=Nc2ccccc2)S/C1=C\c1cccs1,inactive
13,CCOc1cc(-c2sc(Nc3ccccc3)n[n+]2C)ccc1OC,"inconclusive: 23.1 µM [cytotoxic, single point]"
14,CC(C)(C)N(Cc1ccccc1)C(=O)COC(=O)C1CC(=O)N(Cc2ccccc2)C1 (stereo not drawn),inactive
15,COc1ccc(-n2ncc3c2CC(C)(C)CC3NC(=O)c2c(C)cc(=O)oc2C)cc1 (stereo not drawn),inactive
16,Cc1cccc(C)c1NC(=O)C(=O)NCC1CCCN1S(=O)(=O)c1ccccc1 (stereo not drawn),inactive
17,COc1ccc(-c2cn(-c3ccccc3)c(=S)[nH]2)cc1OC,inactive
18,CCOc1ccc(NC(=O)CN(C)C(=O)COc2cccc(CC)c2)cc1OCC,"inconclusive: 0.58 µM [cytotoxic, full curve, poor fit]"
19,COc1ccc(C(=O)NNC2=NC(C)(C)Cc3cc(C)c(C)cc32)cc1,"inconclusive: 1.46 µM [cytotoxic, full curve]"
20,Nc1nnc(COc2ccc(Br)cc2Br)s1,inactive
21,CC(=O)c1ccc(N2CCN(S(=O)(=O)c3ccc4c(c3)C(Cl)(Cl)C(=O)N4)CC2)cc1,inactive
22,Cc1ccc(NC(=O)c2oc3ccccc3c2NC(=O)Cc2ccccc2)cc1,inactive
23,Cc1ccc(Cl)cc1NC(=O)CCC(=O)O,"inconclusive: 29.1 µM [rising, single point]"
24,CC(C)(C)OC(=O)N1CCC(NC(=O)c2nc[nH]c2C(=O)NC2CCN(C(=O)OC(C)(C)C)CC2)CC1,"inconclusive: 0.517 µM [cytotoxic, partial curve]"
25,CCOc1ccc(S(=O)(=O)N2CCN(c3cccc(C(F)(F)F)c3)CC2)cc1OCC,inactive

# A portion from further up:
row,Compound,Potency
7,CCc1nc2c(OCCOc3ccc(F)cc3)cccn2c1N(C)C(=O)CC(C)C,"inconclusive: 8.2 µM [cytotoxic, partial curve]"
8,COCc1cc(C)nc2c1C(=O)NC(c1ccc(C)cc1)N2Cc1ccccc1 (stereo not drawn),inactive
9,CC1(C)CC2CC(C)(CN2C(=O)NC(=O)c2ccccc2)C1 (stereo not drawn),"inconclusive: 20.6 µM [cytotoxic, single point]"
10,Cc1cc(Cn2nc(-c3ccccc3C)cc2C(=O)O)on1,"inconclusive: 29.1 µM [rising, single point]"
11,Cc1c(C(=O)NCc2ccc3c(c2)OCCO3)sc(=O)n1Cc1ccc(S(=O)(=O)N(C)C)cc1,active: 9.2 µM

# Carrying on.

row,Compound,Potency
1,CCc1ccc2[nH]cc(C(=O)OCCOC)c(=O)c2c1,inactive
2,O=C(Cn1cc(CNC(=O)C2CCCCC2)nn1)Nc1cc(C(F)(F)F)ccc1Cl,inactive
3,CC12CC(NC(=O)N1CCc1ccccc1)c1ccccc1O2 (stereo not drawn),"inconclusive: 35.5 µM [cytotoxic, single point]"
4,Fc1ccccc1N1CC(c2ccccc2)C(c2cccs2)=N1 (stereo not drawn),"inconclusive: 10.3 µM [cytotoxic, partial curve]"
5,CCn1c(=O)cc(OCC(=O)N2CCN(c3ccc(C)cc3)C(C)C2)c2ccccc21 (stereo not drawn),inactive
6,COc1ccccc1-n1cc(C(=O)N2CCCC(CO)(Cc3ccccc3C)C2)cn1 (stereo not drawn),"inconclusive: 6.51 µM [cytotoxic, partial curve]"
7,CCC(=O)Nc1ccc2nc(SCCOc3ccc(C)cc3OC)sc2c1,inactive
8,COc1cc2[nH]c3c(c2cc1OC)CCN1CCCC[C@@H]31,inactive
9,N#Cc1ccc(C(=O)N2CCC3CC2c2cc(N4CCCCC4)ccc23)cc1 (stereo not drawn),"inconclusive: 29.1 µM [cytotoxic, single point]"
10,COc1ccc(C(=O)O/N=C(\N)c2ccc(Br)cc2)cc1,"inconclusive: 29.1 µM [cytotoxic, single point]"
11,O=c1c2ccccc2nc(SCc2cccc(F)c2)n1-c1cccc(S(=O)(=O)N2CCCC2)c1,active: 3.26 µM
12,COc1cccc2c(SCC(=O)N/N=C/c3ccc(O)cc3O)cc(C)nc12,inactive
13,COc1ccc(CCN2CC(C#N)=C3c4cc(OC)c(OC)cc4CCN3C2)cc1OC,inactive
14,O=C(/C=C/c1ccco1)NC(=S)Nc1ccc(N2CCCC2)cc1,"inconclusive: 29.1 µM [cytotoxic, single point]"
15,O=C(Nc1ccccc1F)c1csc([C@@H]2C[C@H](O)[C@@H](CO)O2)n1,inactive
16,CC(NC(=O)CSc1n[nH]c(=O)[nH]c1=O)C1CC2CCC1C2 (stereo not drawn),"inconclusive: 29.1 µM [rising, single point]"
17,COc1cccc(CN(C)C(=O)c2ccc(S(=O)(=O)Nc3ccccc3F)cc2)c1OC,"inconclusive: 13 µM [cytotoxic, partial curve]"
18,COc1ccc(CNC(=O)c2cnc(N(C)C)nc2)cc1,inactive
19,CCOC(=O)c1ccccc1OCc1cc(/C=N/NC(=O)c2cccnc2)ccc1OC,"inconclusive: 29.1 µM [cytotoxic, single point]"
20,CCOC(=O)[C@]12CCCC=C1N(Cc1ccc(Cl)cc1Cl)C(=O)[C@H](CC(=O)NCc1cccc3ccccc13)C2,"inconclusive: 18.4 µM [cytotoxic, single point]"
21,Cn1nc(-c2ccccc2)nc1-c1ccccc1,inactive
22,O=c1[nH]ncc2c3ccccc3n(Cc3cccc(Cl)c3)c12,"inconclusive: 18.4 µM [cytotoxic, single point]"
23,Cc1ccc(S(=O)(=O)C[C@@H]2OC[C@H](Cc3ccccc3)N2S(=O)(=O)c2ccc(C)cc2)cc1,"inconclusive: 7.31 µM [cytotoxic, partial curve, poor fit]"
24,CCN(CC)S(=O)(=O)c1ccc(N/N=C(\C)c2ccncc2)nc1,inactive
25,CC(=O)C1CCC2C3CCC4=CC(=O)C=CC4(C)C3CCC12C (stereo not drawn),"inconclusive: 16.4 µM [cytotoxic, partial curve, poor fit]"

row,Compound,Potency
1,Cc1ccccc1-n1c(C)cc(/C=C2/C(=N)N3C(c4ccccc4)=CSC3=NC2=O)c1C,"inconclusive: 23.1 µM [cytotoxic, single point]"
2,COc1cc(CN2CCc3ccccc3C2)ccc1O,active: 13 µM
3,CCCSc1oc(-c2ccco2)nc1S(=O)(=O)c1ccccc1,"inconclusive: 14.6 µM [cytotoxic, partial curve]"
4,CCOc1ccccc1OCC(=O)Nc1cc2c(cc1C(=O)O)OCCCO2,"inconclusive: 18.4 µM [rising, partial curve, poor fit]"
5,C(#Cc1ccccc1)Cn1nnc2ccccc21,"inconclusive: 29.1 µM [cytotoxic, partial curve, poor fit]"
6,O=C(CCCN1C(=O)/C(=C/c2ccccc2Cl)SC1=S)N1CCCC1,inactive
7,CN1C(=O)C(/C(N)=N/NC(=O)c2ccccc2)C2CC1(C)Oc1ccccc12 (stereo not drawn),"inconclusive: 4.11 µM [rising, full curve, poor fit]"
8,CC#CCN(CC#CC)S(=O)(=O)c1ccc(S(=O)(=O)N2CCOCC2)cc1,"inconclusive: 25.9 µM [cytotoxic, single point]"
9,Cc1ccc(CNC(=O)c2ccc(C#CC(C)(C)O)s2)cc1,"inconclusive: 20.6 µM [cytotoxic, partial curve, poor fit]"
10,CCOC(=O)C1=C(CS(=O)(=O)c2ccc(F)c(C)c2)NC(=O)NC1c1ccc(O)c(O)c1 (stereo not drawn),inactive
11,O=S(=O)(c1ccc(F)cc1)N(CCO)CC(O)Cn1c2ccccc2c2ccccc21 (stereo not drawn),active: 23.1 µM
12,COc1cc(C(=O)NC(=S)N(CCc2ccccc2)CCc2ccccc2)cc(OC)c1OC,active: 2.31 µM
13,Cc1cc(Br)ccc1NC(=O)CN(C)C(=O)C1CCN(c2ncnc3sc(C)c(C)c23)CC1,"inconclusive: 16.4 µM [cytotoxic, partial curve, poor fit]"
14,NC(=O)[C@@H]1CCCN1Cc1nc(-c2ccccc2)no1,"inconclusive: 29.1 µM [rising, single point]"
15,COc1ccc(C)cc1N(C(=O)c1ccc(F)cc1)c1nc2ccccc2s1,"inconclusive: 18.4 µM [cytotoxic, single point]"
16,Cc1nnc(NC(=O)CSc2nc3ccccc3[nH]2)s1,"inconclusive: 20.6 µM [rising, single point]"
17,O=C(O)c1cccc(Cn2c(Cl)c(/C=N/NC(=O)c3ccccc3O)sc2=O)c1,"inconclusive: 10.3 µM [cytotoxic, partial curve, poor fit]"
18,CCCC(=O)Nc1ccc2oc(-c3ccc(OC)c(Br)c3)nc2c1,active: 2.59 µM
19,Cc1ccc(-c2cn3cccnc3n2)cc1NC(=O)Nc1ccc(F)cc1,inactive
20,C/C(=N\NC(=O)C(O)(c1ccccc1)c1ccccc1)c1ccc(NC(=O)CCCC(=O)O)cc1,"inconclusive: 29.1 µM [rising, single point]"
21,O=[N+]([O-])c1ccccc1OCc1nc(-c2cccs2)no1,"inconclusive: 29.1 µM [cytotoxic, single point]"
22,O=C(c1ccc2c(c1)OCO2)c1cn(Cc2ccc(Cl)cc2)c2ccc(F)cc2c1=O,inactive
23,OC(COc1ccccc1)CN(Cc1ccccc1)CC(O)COc1ccccc1 (stereo not drawn),"inconclusive: 20.6 µM [cytotoxic, single point]"
